## Screening data, single-dose tests

Source: ChEMBL document CHEMBL3988442, “University of Dundee, Small-Polar-MMV Screening Library” (2021).

Each number is a percent effect as filed.
The record does not define 0% and 100%; most values in the screen are far below 50% and negative numbers occur (in some assays of this library far below -100).
The compounds are a random part of those screened.

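Assay of Toxoplasma gondii numbers, read through their beta-galactosidase reporter with a colour substrate. Compounds at 50 µM. The record gives no direction; the compounds picked for IC50 retests had high values, so higher reads as fewer parasites. About 18,000 compounds were tested under these conditions; 0.94% (about 170) showed 50% or more at least once.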

For NC1CC12CCC(F)(F)CC2 (centres unmarked) the result was -14.85%. O=C(Nc1nncs1)NC1CCNCC1 read 13.45%. Result for CCc1nnc(NC(=O)c2ccnc(N(C)C)c2)s1 was 6.933%. Result for CC(OC(=O)c1ccccc1NCCO)C(N)=O (centres unmarked) was 4.265%. For COCC(=O)N1CCN(C)Cc2ccccc21 the result was -2.923%. For Cc1ccsc1C(=O)N(C)CC(=O)NC1CC1 the result was 4.652%. With O=C(CCn1nc2ccccn2c1=O)N1CCNCC1 the screen gave 9.116%. For CC(C)CC1(CNC(=O)NC2CCC(=O)NC2)CCC1 (centres unmarked) the result was -3.808%.

Cc1ccc(CNC(C)Cn2cncn2)o1 (centres unmarked) read -3.31%. Result for CCc1ccccc1NC(=O)CN(C)C(=O)C1CC1 was 18.26%. For CCc1nnc(NC(=O)c2cc(OC)ccn2)s1 the result was 30.57%. For CC(C)(C)CNCCCNS(C)(=O)=O the result was 3.671%. For COCC1CCCCN1Cc1ccc(S(C)(=O)=O)cc1 (centres unmarked) the result was -12.92%. Result for CCOCC(O)CSc1nccn1-c1cccc(F)c1 (centres unmarked) was 0.2421%. CCNC(=O)c1ccc(-n2c(C)ccc2C)nc1 read -11.96%. For CN(CC(=O)N(CCC#N)CC1CCC1)S(C)(=O)=O the result was -4.979%.

For CS(=O)(=O)NC1CCN(CCn2cncn2)CC1 the result was -9.062%. COC(=O)c1cc(C(F)(F)F)cc(S(N)(=O)=O)c1 read 3.591%. For CCCNC(=O)C1CCN(C(=O)c2cc(Cl)c[nH]2)CC1 the result was -2.817%. With CCN(C(=O)NCCc1ccco1)C(C)CS(C)(=O)=O (centres unmarked) the screen gave -4.429%. Result for O=C1CC(c2cccnc2)=NCCN1 was 42.08%. COc1ccccc1NC(=O)CN1CCCC1 read 2.399%. CN1CCC(CNC(=O)CCc2ccccc2O)C1 (centres unmarked) read -1.018%. With COC(=O)C(CN)N(C)Cc1ccccc1 (centres unmarked) the screen gave 0.42%.

With N#Cc1cccc(NC(=O)CCN2CCOC2=O)c1 the screen gave -8.904%. Result for CNC(=O)CCCNCc1c(C(C)C)nn(C)c1OC was 0.08172%. For CCN1CC(c2nc3ccccc3[nH]2)CC1=O (centres unmarked) the result was -53.56%. CC(O)CN1CCN(Cc2ccccc2C#N)CC1 (centres unmarked) read -2.224%. For CC1(C)Cc2cc(CN)ccc2O1 the result was 12.16%. For Cc1cc(C(=O)N2CCSCC2c2cnn(C)c2)no1 (centres unmarked) the result was -11.07%. With Cc1ccc(SCC(=O)NC(N)=O)nc1 the screen gave -10.43%. For c1cnc(NCc2ccnc(N3CCOCC3)c2)nc1 the result was -3.41%.

With O=C(NC1CCN(C2CCOCC2)CC1)c1cnc[nH]1 the screen gave -24.59%. Result for OCC(c1ccc(Br)cc1)N1CCNCC1 (centres unmarked) was 5.586%. CN(C(=O)c1ccc(Cl)c(F)c1)C1(C(N)=O)CCCC1 read 33.56%. With COc1ccccc1CC(=O)N(C)C1CCS(=O)(=O)C1 (centres unmarked) the screen gave 2.665%. O=S(=O)(NCCNC1(CO)CCCC1)c1ccccc1 gave -9.474%. O=C(Cc1ccc(Cl)cc1Br)NC(CO)CO gave 25.76%. For Nc1nc(CCCNC(=O)Cc2ccsc2)cs1 the result was 3.655%. Result for Nc1nc2c(s1)COCC2 was 9.986%.

For CCc1cc(C(=O)NCC(=O)N2CCCCC2)[nH]n1 the result was -7.818%. With Cc1nccn1CCNC(=O)C(C)(C)C the screen gave 1.756%. CSc1ccccc1NCC(=O)NC1CC1 read 51.75%. CC(C)CNS(=O)(=O)c1ccc(NS(C)(=O)=O)cc1 gave -2.587%. Result for Cc1ccc(C(=O)NCc2ccnc(N(C)C)c2)s1 was -1.313%. Cc1n[nH]/c(=N\C(=O)c2csc(NC3CC3)n2)s1 read 37.81%. COc1cc(C(C)NCC(C)(C)C(N)=O)ccc1F (centres unmarked) read 5.492%. C1CC(c2nnc(CN3CCCC3)o2)C1 gave -0.8531%.

With CNCC(C)CNC(=O)c1ccc(C(N)=O)nc1 (centres unmarked) the screen gave -13.42%. Nc1nccnc1C(=O)NCc1cc(Br)cs1 read -3.88%. For NC(=O)Nc1ccc(CNC(=O)c2cccnc2)cc1 the result was -21.38%. Result for CNC(=O)C(C)NS(=O)(=O)c1ccc2ccccc2c1 (centres unmarked) was 20.87%. CC1(CN)CCC(=O)N1 (centres unmarked) gave -11.85%. With N#Cc1cnn(-c2ccccc2)n1 the screen gave 17.75%. Result for CC(C)(C#N)C(=O)Nc1nc2ccccc2[nH]1 was -1.518%. Cc1csc(C(=O)N[C@@H](C)C(N)=O)c1I read -7.511%.

Some entries from above, unchanged:

{"smiles": "CNCC(C)CNC(=O)c1ccc(C(N)=O)nc1", "stereo": "centres unmarked", "Percent Effect": -13.42}
{"smiles": "O=S(=O)(NCCNC1(CO)CCCC1)c1ccccc1", "Percent Effect": -9.474}
{"smiles": "CNC(=O)C(C)NS(=O)(=O)c1ccc2ccccc2c1", "stereo": "centres unmarked", "Percent Effect": 20.87}
{"smiles": "CSc1ccccc1NCC(=O)NC1CC1", "Percent Effect": 51.75}
{"smiles": "CCc1nnc(NC(=O)c2ccnc(N(C)C)c2)s1", "Percent Effect": 6.933}
{"smiles": "CN(CC(=O)N(CCC#N)CC1CCC1)S(C)(=O)=O", "Percent Effect": -4.979}
{"smiles": "Cc1ccc(SCC(=O)NC(N)=O)nc1", "Percent Effect": -10.43}